Consider two molecules from US9296810 (Novartis, dated 2016).

The target of this assay is T1, hen egg white lysozyme (hen, UniProt P00698 19-147, biotinylated (HEL-b); sites not stated).
T1 construct: also called lyzozyme; HEL-b (biotinylated)
Nature of the assay: yeast display selection.

B1: SEQ ID NO 68 (designed binder)
chain: VSDVPRDLEVVAATPTSLLISWDAPAVTVRYYRITYGEYYRSSLPQEFTVPGSKSTATISYYYPSVDYTITVYAVTGRGESPASSKPISINYSRYY
Turning to B1, the binding result is listed as “binds”.

B2: SEQ ID NO 51 (designed binder)
chain: VSDVPRDLEVVAATPTSLLISWDAPAVTVRYYRITYGESYRRGQSGQEFTVPGSKSTATISPSQSGVDYTITVYAVTGRGESPASSKPISINYSYAS
With B2, the binding result is on record as “binds”.
